Assay results taken from patent publication US20150368195A1, “INDOLINE COMPOUNDS FOR TREATMENT AND/OR PREVENTION OF INFLAMMATION DISEASES” (Taipei Medical University, priority 2014, published 2015).

What was measured:
[1] = system: nitric oxide (NO); experiment: LPS-induced nitric oxide production in RAW 264.7 macrophages; type: cell-based; conditions: Mus musculus, RAW264.7; LPS-stimulated RAW 264.7 macrophages; mean ± SEM, three experiments
Experimental: Nitrite concentration was determined using a dilution of sodium nitrite as a standard.
(§1) Furthermore, the anti-inflammatory effects of MPT0G009 was evaluated. […] These supernatants were then assayed for PGE2, NO, and IL-6.

[2] = system: prostaglandin E2 (PGE2); experiment: LPS-induced PGE2 production in RAW 264.7 macrophages; type: cell-based; conditions: Mus musculus, RAW264.7; LPS-stimulated RAW 264.7 macrophages; mean ± SEM, three experiments
Experimental: The concentrations of PGE2 in the supernatants of RAW 264.7 cell cultures were determined using an EIA kit (R&D Systems, Minneapolis, Minn., USA).
as §1

[3] = system: tumor necrosis factor-α (TNF-α); experiment: LPS-induced TNF-α production in RAW 264.7 macrophages; conditions: Mus musculus, RAW264.7, read-out: IC50 TNF-α

For `O=C(CCCCCCC(=O)Nc1ccccc1)NO` [SAHA, Suberanilohydroxamic Acid, reference compound], the IC50 [1] was greater than 10 µM, the IC50 [2] was 3.22 ± 0.51 µM and the IC50 [3] was 1.19 ± 0.05 µM.
